Reference: publication doi:10.1101/2024.07.23.604321
No constants are given. Whether binding was seen depends on the method and setting. For some of these results: Binding seen in cells or lysates may run through a third protein. Some results given as binding are weak or reduced against the parent protein; the word gives no strength. Sequences can lack the tags named with a protein.

Chains of the proteins cited; added tags and fusions are not shown.
UniProt Q9BTU6: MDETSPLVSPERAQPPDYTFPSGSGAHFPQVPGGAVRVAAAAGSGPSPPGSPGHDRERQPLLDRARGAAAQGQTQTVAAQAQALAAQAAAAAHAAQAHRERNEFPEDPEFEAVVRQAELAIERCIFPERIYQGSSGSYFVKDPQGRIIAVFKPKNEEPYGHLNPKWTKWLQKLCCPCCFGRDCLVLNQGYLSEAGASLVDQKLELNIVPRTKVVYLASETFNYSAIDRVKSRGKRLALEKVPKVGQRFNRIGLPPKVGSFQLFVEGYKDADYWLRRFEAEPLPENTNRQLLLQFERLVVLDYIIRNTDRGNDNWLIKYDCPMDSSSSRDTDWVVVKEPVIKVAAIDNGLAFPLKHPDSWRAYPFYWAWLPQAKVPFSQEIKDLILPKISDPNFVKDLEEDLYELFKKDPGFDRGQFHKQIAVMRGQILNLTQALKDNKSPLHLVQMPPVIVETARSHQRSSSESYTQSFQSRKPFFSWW

T1: GFP-ARFIP2 (ADP ribosylation factor interacting protein 2, full-length) (UniProt P53365)
T1 sequence: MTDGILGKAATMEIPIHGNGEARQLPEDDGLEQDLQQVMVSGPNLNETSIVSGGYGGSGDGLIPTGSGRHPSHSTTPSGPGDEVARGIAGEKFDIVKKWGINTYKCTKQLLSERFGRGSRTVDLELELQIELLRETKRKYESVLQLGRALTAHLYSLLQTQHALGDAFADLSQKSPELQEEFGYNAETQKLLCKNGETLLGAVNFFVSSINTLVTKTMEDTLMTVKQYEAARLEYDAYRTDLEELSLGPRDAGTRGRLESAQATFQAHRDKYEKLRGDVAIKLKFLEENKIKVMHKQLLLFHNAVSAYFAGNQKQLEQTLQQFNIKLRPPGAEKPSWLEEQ

T2: GFP-AH-BAR (ARFIP2 AH-BAR domain, 109-341) (UniProt P53365)
T2 sequence: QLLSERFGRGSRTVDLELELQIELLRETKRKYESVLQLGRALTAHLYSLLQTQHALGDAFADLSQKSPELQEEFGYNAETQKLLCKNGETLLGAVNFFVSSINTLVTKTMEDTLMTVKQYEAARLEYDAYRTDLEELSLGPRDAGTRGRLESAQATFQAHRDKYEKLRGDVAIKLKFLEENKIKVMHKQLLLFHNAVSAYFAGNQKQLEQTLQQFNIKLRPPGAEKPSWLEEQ

T3: GFP-ARFIP Chimera (N-terminal portion of ARFIP2 (1-92) fused with the AH-BAR domain of ARFIP1 (94-341)) (UniProt P53365)
T3 sequence: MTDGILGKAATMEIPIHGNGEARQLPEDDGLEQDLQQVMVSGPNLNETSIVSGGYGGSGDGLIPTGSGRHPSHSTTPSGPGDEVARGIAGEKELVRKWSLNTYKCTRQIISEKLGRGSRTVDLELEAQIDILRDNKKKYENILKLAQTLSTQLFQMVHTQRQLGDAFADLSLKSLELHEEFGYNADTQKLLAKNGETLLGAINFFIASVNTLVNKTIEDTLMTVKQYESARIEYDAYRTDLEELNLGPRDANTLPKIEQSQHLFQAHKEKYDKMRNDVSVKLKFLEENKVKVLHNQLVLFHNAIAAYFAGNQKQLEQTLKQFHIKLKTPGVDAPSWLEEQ

T4: Flag-ORP9 (of the Flag-ORP9/11 heterodimer) (UniProt Q96SU4)
T4 sequence: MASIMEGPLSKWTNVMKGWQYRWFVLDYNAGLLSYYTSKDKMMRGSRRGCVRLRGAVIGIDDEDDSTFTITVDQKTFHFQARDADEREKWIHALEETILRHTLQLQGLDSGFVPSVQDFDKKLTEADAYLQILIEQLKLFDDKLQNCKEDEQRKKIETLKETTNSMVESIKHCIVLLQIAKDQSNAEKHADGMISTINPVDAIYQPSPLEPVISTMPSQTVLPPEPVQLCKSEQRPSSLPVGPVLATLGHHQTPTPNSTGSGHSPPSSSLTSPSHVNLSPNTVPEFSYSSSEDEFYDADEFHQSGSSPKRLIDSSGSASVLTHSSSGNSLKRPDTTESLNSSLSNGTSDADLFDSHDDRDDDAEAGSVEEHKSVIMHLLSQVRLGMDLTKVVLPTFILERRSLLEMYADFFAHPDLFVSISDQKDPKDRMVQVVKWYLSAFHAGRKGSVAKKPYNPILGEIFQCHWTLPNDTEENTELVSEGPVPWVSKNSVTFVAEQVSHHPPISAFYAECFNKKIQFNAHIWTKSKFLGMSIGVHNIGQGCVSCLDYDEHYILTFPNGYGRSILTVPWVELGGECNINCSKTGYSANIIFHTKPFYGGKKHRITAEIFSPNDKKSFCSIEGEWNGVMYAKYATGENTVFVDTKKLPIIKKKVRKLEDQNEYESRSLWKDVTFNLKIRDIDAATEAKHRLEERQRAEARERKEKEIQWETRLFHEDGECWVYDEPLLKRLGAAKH


How the values were obtained:
[1] = biological target: T1, GFP-ARFIP2 (ADP ribosylation factor interacting protein 2, full-length); test: co-IP
[2] = biological target: T2, GFP-AH-BAR (ARFIP2 AH-BAR domain, 109-341); test: co-IP
[3] = biological target: T3, GFP-ARFIP Chimera (N-terminal portion of ARFIP2 (1-92) fused with the AH-BAR domain of ARFIP1 (94-341)); test: co-IP
[4] = biological target: T4, Flag-ORP9 (of the Flag-ORP9/11 heterodimer); test: affinity co-purification

Row | binding [1] | binding [2] | binding [3] | binding [4] | Molecule
1 | binds | no binding | binds | – | phosphatidylinositol 4-kinase type 2a (PI4K2A) (from UniProt Q9BTU6 1-479) (enzyme)
2 | binds | no binding | binds | – | ORP9 (oxysterol-binding protein-related protein 9) (protein, UniProt Q96SU4 1-736) MASIMEGPLSKWTNVMKGWQYRWFVLDYNAGLLSYYTSKDKMMRGSRRGCVRLRGAVIGIDDEDDSTFTITVDQKTFHFQARDADEREKWIHALEETILRHTLQLQGLDSGFVPSVQDFDKKLTEADAYLQILIEQLKLFDDKLQNCKEDEQRKKIETLKETTNSMVESIKHCIVLLQIAKDQSNAEKHADGMISTINPVDAIYQPSPLEPVISTMPSQTVLPPEPVQLCKSEQRPSSLPVGPVLATLGHHQTPTPNSTGSGHSPPSSSLTSPSHVNLSPNTVPEFSYSSSEDEFYDADEFHQSGSSPKRLIDSSGSASVLTHSSSGNSLKRPDTTESLNSSLSNGTSDADLFDSHDDRDDDAEAGSVEEHKSVIMHLLSQVRLGMDLTKVVLPTFILERRSLLEMYADFFAHPDLFVSISDQKDPKDRMVQVVKWYLSAFHAGRKGSVAKKPYNPILGEIFQCHWTLPNDTEENTELVSEGPVPWVSKNSVTFVAEQVSHHPPISAFYAECFNKKIQFNAHIWTKSKFLGMSIGVHNIGQGCVSCLDYDEHYILTFPNGYGRSILTVPWVELGGECNINCSKTGYSANIIFHTKPFYGGKKHRITAEIFSPNDKKSFCSIEGEWNGVMYAKYATGENTVFVDTKKLPIIKKKVRKLEDQNEYESRSLWKDVTFNLKIRDIDAATEAKHRLEERQRAEARERKEKEIQWETRLFHEDGECWVYDEPLLKRLGAAKH
3 | – | – | – | binds | ORP11 (of the Flag-ORP9/11 heterodimer) (protein, UniProt Q9BXB4 1-747) MQGGEPVSTMKVSESEGKLEGQATAVTPNKNSSCGGGISSSSSSRGGSAKGWQYSDHMENVYGYLMKYTNLVTGWQYRFFVLNNEAGLLEYFVNEQSRNQKPRGTLQLAGAVISPSDEDSHTFTVNAASGEQYKLRATDAKERQHWVSRLQICTQHHTEAIGKNNPPLKSRSFSLASSSNSPISQRRPSQNAISFFNVGHSKLQSLSKRTNLPPDHLVEVREMMSHAEGQQRDLIRRIECLPTSGHLSSLDQDLLMLKATSMATMNCLNDCFHILQLQHASHQKGSLPSGTTIEWLEPKISLSNHYKNGADQPFATDQSKPVAVPEEQPVAESGLLAREPEEINADDEIEDTCDHKEDDLGAVEEQRSVILHLLSQLKLGMDLTRVVLPTFILEKRSLLEMYADFMSHPDLFIAITNGATAEDRMIRFVEYYLTSFHEGRKGAIAKKPYNPIIGETFHCSWKMPKSEVASSVFSSSSTQGVTNHAPLSGESLTQVGSDCYTVRFVAEQVSHHPPVSGFYAECTERKMCVNAHVWTKSKFLGMSIGVTMVGEGILSLLEHGEEYTFSLPCAYARSILTVPWVELGGKVSVNCAKTGYSASITFHTKPFYGGKLHRVTAEVKHNITNTVVCRVQGEWNSVLEFTYSNGETKYVDLTKLAVTKKRVRPLEKQDPFESRRLWKNVTDSLRESEIDKATEHKHTLEERQRTEERHRTETGTPWKTKYFIKEGDGWVYHKPLWKIIPTTQPAE
